Measurements reported in the supplement of paper PMC10727501.
The other results are listed elsewhere or left out. This data set is noisy: repeats of one test often differ as much as different tests do.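 Free-swimming zebrafish larvae were scored for O-bend response probability to dark flashes (naive: first five; training: remaining flashes of four 60-flash blocks; test: later 60-flash block) and for turning toward alternating leftward/rightward LED motion (OMR). Six treated larvae were compared with sixty 0.1% DMSO controls; |SSMD|≥2 defined a hit.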

What was measured:
Settings in all cases: 10 µM; pre-incubation: 30-90 min
[1] = system: Danio rerio larvae (5 dpf, TLF); experiment: OMR-Perf (SSMD vs DMSO vehicle); higher = higher than vehicle (e.g. higher dark-flash O-bend response probability, or better optomotor performance)
[2] = system: Danio rerio larvae (5 dpf, TLF); experiment: Prob-Test (SSMD vs DMSO vehicle); higher = higher than vehicle (e.g. higher dark-flash O-bend response probability, or better optomotor performance)
[3] = system: Danio rerio larvae (5 dpf, TLF); experiment: Prob-Naive (SSMD vs DMSO vehicle); higher = higher than vehicle (e.g. higher dark-flash O-bend response probability, or better optomotor performance)
[4] = system: Danio rerio larvae (5 dpf, TLF); experiment: Prob-Train (SSMD vs DMSO vehicle); higher = higher than vehicle (e.g. higher dark-flash O-bend response probability, or better optomotor performance)

Row | Compound | OMR-Perf [1] | Prob-Test [2] | Prob-Naive [3] | Prob-Train [4]
1 | CCOC(=O)c1ccc(N)cc1 [Benzocaine] | -0.14 | -0.295 | -0.315 | -0.352
2 | CCC(=O)OCC(=O)[C@]1(OC(=O)CC)[C@@H](C)C[C@H]2[C@@H]3CCC4=CC(=O)C=C[C@]4(C)[C@]3(F)[C@H](O)C[C@@]21C [Betamethasone Dipropionate (Diprolene)] | -0.0214 | -0.231 | -0.0588 | -0.325
3 | CCO.N#CC(=C(/N)Sc1ccccc1N)/C(C#N)=C(\N)Sc1ccccc1N | 0.0753 | -0.873 | 0.255 | -1.64
4 | N#Cc1ccc(-c2csc(NN=C3CCCC3)n2)cc1 [Remodelin] | -0.104 | -1.74 | -5.72 | -2.64
5 | C[C@H](Cn1cnc2c(N)ncnc21)OCP(=O)(O)O [Tenofovir] | 0.0129 | 0.311 | -0.311 | 0.363
6 | N[C@@H](Cc1ccc(O)c(O)c1)C(=O)O [Levodopa (Sinemet)] | -0.353 | -0.243 | -0.142 | -1.15
7 | CN1CCN2c3ncccc3Cc3ccccc3C2C1 (centres undefined) [Mirtazapine] | -0.644 | -0.282 | 0.375 | -0.336
8 | Cn1c(N2CCCCS2(=O)=O)nc(C(=O)NCc2ccc(F)cc2)c(O)c1=O | -0.949 | -1.85 | -0.197 | -0.645
9 | CC(C)c1cnn2c(NCc3ccccc3)cc(NCCCCCCN)nc12.Cl | 0.399 | -0.272 | -0.43 | -0.746
10 | CC(C)n1nc(-c2cc3cc(O)ccc3[nH]2)c2c(N)ncnc21 | -0.196 | -0.0472 | 0.249 | 0.37
11 | COc1ccc2cc3[n+](cc2c1OC)CCc1cc2c(cc1-3)OCO2.[Cl-] [Berberine HCl] | -0.00232 | 0.0574 | 0.0498 | -0.157
12 | CO[C@H]1C[C@H]2CC[C@@H](C)[C@@](O)(O2)C(=O)C(=O)N2CCCC[C@H]2C(=O)O[C@H]([C@H](C)C[C@@H]2CC[C@H](OP(C)(C)=O)[C@H](OC)C2)CC(=O)[C@H](C)/C=C(\C)[C@@H](O)[C@@H](OC)C(=O)[C@H](C)C[C@H](C)/C=C/C=C/C=C/1C [Ridaforolimus (Deforolimus, MK-8669)] | 0.876 | 0.33 | 0.00644 | 0.019
13 | CN(C)CCCC1(c2ccc(F)cc2)OCc2cc(C#N)ccc21.O=C(O)C(=O)O (centres undefined) [Escitalopram Oxalate] | 0.198 | 0.323 | -0.217 | -0.681
14 | COc1cc2c(NC3CCN(CC4CCCCC4)CC3)nc(N3CCCN(C(C)C)CC3)nc2cc1OCCCN1CCCCC1 | 0.0645 | 0.554 | -0.0813 | 0.319
15 | C[C@H]1NC(=O)NC1=O [Methylhydantoin-5-(D)] | -0.315 | -0.157 | 0.163 | 0.384
16 | CC(C)(C)C(=O)OCOP(=O)(COCCn1cnc2c(N)ncnc21)OCOC(=O)C(C)(C)C [Adefovir Dipivoxil] | -0.152 | -0.122 | -0.141 | 0.143
17 | Oc1cc(O)cc(/C=C/c2ccc(O)c(O)c2)c1 [Piceatannol] | -0.379 | -0.0634 | -0.343 | -0.124
18 | O=c1c(-c2ccc(O)cc2)coc2cc(O)cc(O)c12 [Genistein] | 0.0841 | 0.593 | -0.262 | 0.157
19 | CNCc1ccc(-c2cc(-c3nc(-c4ccc(S(=O)(=O)C(C)C)cc4)cnc3N)on2)cc1 | -0.361 | -0.338 | 0.145 | -0.482
20 | C=CCNC1=C2C[C@@H](C)C[C@H](OC)[C@H](O)[C@@H](C)/C=C(\C)[C@H](OC(N)=O)[C@@H](OC)/C=C\C=C(\C)C(=O)NC(=CC1=O)C2=O [17-AAG (Tanespimycin)] | 0.027 | -0.101 | 0.00516 | -0.312
21 | O=c1cc[nH]c(=O)[nH]1 [Uracil] | -0.206 | 0.513 | 0.241 | 0.379
22 | C=CC(=O)Nc1cccc(Oc2nc(Nc3ccc(N4CCN(C)CC4)cc3)ncc2Cl)c1 | -0.278 | -0.0437 | -0.112 | -0.33
23 | NS(=O)(=O)c1cc2c(cc1Cl)NCNS2(=O)=O [Hydrochlorothiazide] | 0.0486 | 0.238 | 0.184 | -0.257
24 | CCN1CCN(c2cc3c(cc2F)c(=O)c(C(=O)O)cn3C2CC2)CC1 [Enrofloxacin] | -0.0564 | -0.199 | 0.204 | 0.24
25 | COc1ccc(-c2cc(=O)c3c(OC)c(OC)c(OC)c(OC)c3o2)cc1 [Tangeretin] | -1.38 | -1.77 | -5.05 | -2.69
26 | CCC(=O)c1c(O)cc(O)cc1O [Flopropione] | -0.25 | -0.377 | -0.271 | -0.583

Just OMR-Perf [1], Prob-Train [4] and Prob-Naive [3], for some of the entries so far:
Row	Compound	OMR-Perf [1]	Prob-Train [4]	Prob-Naive [3]
4	N#Cc1ccc(-c2csc(NN=C3CCCC3)n2)cc1 [Remodelin]	-0.104	-2.64	-5.72
19	CNCc1ccc(-c2cc(-c3nc(-c4ccc(S(=O)(=O)C(C)C)cc4)cnc3N)on2)cc1	-0.361	-0.482	0.145
23	NS(=O)(=O)c1cc2c(cc1Cl)NCNS2(=O)=O [Hydrochlorothiazide]	0.0486	-0.257	0.184

Going on with the list.

Row | Compound | OMR-Perf [1] | Prob-Test [2] | Prob-Naive [3] | Prob-Train [4]
27 | O=C([O-])C(O)Cc1ccc(O)c(O)c1.[Na+] (centres undefined) [Sodium Danshensu] | -0.357 | 0.188 | -0.0234 | -0.167
28 | CC(=O)[C@]1(O)Cc2c(O)c3c(c(O)c2[C@H](O[C@H]2C[C@H](N)[C@H](O)[C@H](C)O2)C1)C(=O)c1ccccc1C3=O.Cl [Idarubicin HCl] | 0.0563 | 0.534 | 0.121 | 0.0486
29 | CS(=O)(=O)c1ccc(C2=C(c3ccccc3)C(=O)OC2)cc1 [Rofecoxib] | 0.154 | -0.214 | -0.106 | -0.0311
30 | Cl.Cl.Clc1ccc(Nc2nnc(Cc3ccncc3)c3ccccc23)cc1 [Vatalanib (PTK787) 2HCl] | -0.387 | -1.17 | -0.157 | -1.53
31 | CN(C)CCCNC(=O)c1ccc(-c2cc(O)c3ncccc3c2)cc1 | 0.0371 | -0.0485 | -0.0534 | 0.443
32 | CCOC(CN1CCN(CC(C)C(=O)c2ccccc2)CC1)c1ccccc1.Cl.Cl (centres undefined) [Eprazinone 2HCl] | -0.518 | -1.39 | 0.00488 | -0.539
33 | CN[C@@H]1[C@H](O[C@H]2[C@H](O[C@H]3[C@H](O)[C@@H](O)[C@@H](NC(=N)N)[C@@H](O)[C@@H]3NC(=N)N)O[C@@H](C)[C@@]2(O)C=O)O[C@H](CO)[C@H](O)[C@H]1O.CN[C@@H]1[C@H](O[C@H]2[C@H](O[C@H]3[C@H](O)[C@@H](O)[C@@H](NC(=N)N)[C@@H](O)[C@@H]3NC(=N)N)O[C@@H](C)[C@@]2(O)C=O)O[C@H](CO)[C@H](O)[C@H]1O.O=S(=O)(O)O.O=S(=O)(O)O.O=S(=O)(O)O [Streptomycin sulfate] | 0.753 | -0.715 | 0.204 | -0.242
34 | Cc1cnc(NC(=O)Nc2cc(Br)c(C)cc2OC[C@@H]2CNCCO2)cn1 | -0.426 | -0.301 | -0.397 | -0.696
35 | CC(S)C(=O)NCC(=O)O (centres undefined) [Tiopronin] | 1.3 | 0.634 | 0.285 | 0.174
36 | Cl.NC(=O)c1cnc(N[C@@H]2CCCC[C@H]2N)nc1Nc1cccc(-n2nccn2)c1 | 0.319 | -0.0226 | 0.00516 | -0.14
37 | N=C(N)Nc1nc(CSCCC(=N)NS(N)(=O)=O)cs1 [Famotidine] | -0.306 | 0.158 | 0.16 | 0.639
38 | COc1cc(C2Oc3ccc(C4Oc5cc(O)cc(O)c5C(=O)C4O)cc3OC2CO)ccc1O (centres undefined) [Silymarin] | -0.232 | -0.378 | -0.91 | -0.168
39 | CCC(CC)[C@H](NC(C)=O)[C@@H]1[C@H](O)[C@@H](C(=O)O)C[C@H]1NC(=N)N.O.O.O [Peramivir Trihydrate] | -0.183 | 0.262 | -0.142 | 0.509
40 | CC(C)(C)CC(C)(C)c1ccc(O)c(Cc2ccc(Cl)cc2Cl)c1 [Clofoctol] | 0.587 | -0.469 | -0.293 | -1.06
41 | O=c1c2ccccc2oc2ccccc12 [Xanthone] | -0.512 | -1.76 | -3.13 | -2.71
42 | CN1CC(=O)NC1=N [Creatinine] | -0.0196 | -0.291 | -0.0927 | -0.684
43 | Cn1c([N+](=O)[O-])cnc1COC(N)=O [Ronidazole] | -0.572 | -0.505 | -0.265 | -0.188
44 | CN(C[C@@H]1COCCO1)S(=O)(=O)Nc1ccc2ccc3ncc(-c4cnn(C)c4)cc3c(=O)c2c1 | 0.256 | -0.273 | 0.319 | 0.124
45 | CC1(C)CCC(c2ccc(Cl)cc2)=C(CN2CCN(c3ccc(C(=O)NS(=O)(=O)c4ccc(N[C@H](CCN5CCOCC5)CSc5ccccc5)c(S(=O)(=O)C(F)(F)F)c4)cc3)CC2)C1 [ABT-263 (Navitoclax)] | -0.11 | 0.313 | -0.571 | 0.318
46 | CCCc1cc(C(N)=S)ccn1 [Protionamide] | 0.0515 | -0.391 | -0.048 | -0.167
47 | c1ccc2[nH]c(-c3cscn3)nc2c1 [Thiabendazole] | -0.465 | -1.21 | -0.34 | -1.19
48 | C/C(=C\c1ccc(C(=O)O)cc1)c1ccc2c(c1)C(C)(C)CCC2(C)C [TTNPB (Arotinoid Acid)] | -0.276 | 0.11 | -0.433 | 0.0615
49 | CC(C)NCC(O)COc1cccc2ccccc12.Cl (centres undefined) [Propranolol HCl] | 0.0374 | 0.334 | 0 | 0.475
50 | C=CC(=O)Nc1ccc2ncnc(Nc3ccc(OCc4cccc(F)c4)c(Cl)c3)c2c1.Cc1ccc(S(=O)(=O)O)cc1 | 0.192 | -0.164 | -0.13 | -0.252
51 | CCOC(=O)c1ccc(N2NC(=O)/C(=C/c3ccc([N+](=O)[O-])o3)C2=O)cc1 | -0.0485 | 0.919 | -0.715 | -0.154
